# Test results as given in the supplement of paper PMC5407854, “Inhibitor of ppGalNAc-T3-mediated O-glycosylation blocks cancer cell invasiveness and lowers FGF23 levels” (eLife, 2017).
# In all, about 1,700 compounds were measured (“T3 sensor activation Q score (MG/GFP ratio z-score vs DMSO controls)”: median about 0.25, highest 2% from about 1.9 on). The list shows a part of the results.
# Test system: ppGalNAc-T3 sensor
# Experiment: T3 sensor activation Q score (MG/GFP ratio z-score vs DMSO controls) (SD units); higher = more sensor activation (inhibition of ppGalNAc-T3 glycosylation)
# Settings: HEK293 sensor cells; 10 µM; 6 h
# Protocol: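 Cells were treated with compound at 10 uM for 6 h, then MG/GFP ratio was read by flow cytometry (10,000 cells per well, duplicate wells). Q = (R - R_neg)/SD_neg relative to DMSO vehicle controls; the signal rises when the glycosyltransferase is inhibited.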
row,SMILES,T3 sensor activation Q score
1,COC(=O)CC1(C(=O)OC)Nc2cc(Cl)c(Cl)cc2S(=O)(=O)N1O (centres undefined),0.7
2,O=C(Nc1ccc(F)cc1)OCCOc1ccc(Br)cc1,0.15
3,COc1cc(NC(C)=O)c2ncccc2c1Br,-1.05
4,CC1(C)CCSC(/C=C/c2ccccc2)=N1,-1
5,N#Cc1nnn2c1nc(N)c1c(Cl)cccc12,1.65
6,CCOc1ccc(NC(=O)Nc2cc(C(C)C)ccc2C)cc1,0.4
7,NCC(=O)CCC(=O)O,0.05
8,CCOCCc1c(O)nc(SC)[nH]c1=O,0.55
9,Nc1nc(SCc2ccccc2)sc1C(=O)N1CCCCC1,1.35
10,OCC1(CO)CC2(C1)CC(CO)(CO)C2,-1.15
11,COc1ccc2c(c1)C(=O)C1NC(=O)NC(=O)C1(Br)N2 (centres undefined),-0.1
12,COc1cccc(/C=C/c2nccc3ccccc23)c1OC,0.65
13,NC(=O)c1cc2c3ccccc3ccn2c1-c1ccccc1,2.95
14,Cn1c(=O)c2[nH]c(COc3ccc(C(C)(C)C)cc3)nc2n(C)c1=O,-0.3
15,COC(=NC(C)C)NC(C)C,-3.05
16,CC1CC(C)(C)NC2(CCCC2)N1 (centres undefined),-0.6
17,COc1ccc2c(c1)CCN1C2CCN2C(=O)CCC21 (centres undefined),-0.35
18,CC1CO/C(=C2\C(=O)OCC2C)C1 (centres undefined),-1.1
19,Cc1cc(-n2cnc3c(=O)[nH]cnc32)ccc1N,1.6
20,Cc1cc(/C=C2\SC(=S)NC2=O)cc(C)c1O,1.6
21,CCC1(C(=O)OC)CCc2c(cc(OC)c3ccccc23)C1=O (centres undefined),0.25
22,CC(=O)CC(=O)Nc1ccc2ccccc2c1,1.25
23,O=C1COc2cccnc2N1,1.4

# Pulled one by one from above, 4 records:
row,SMILES,T3 sensor activation Q score
5,N#Cc1nnn2c1nc(N)c1c(Cl)cccc12,1.65
2,O=C(Nc1ccc(F)cc1)OCCOc1ccc(Br)cc1,0.15
7,NCC(=O)CCC(=O)O,0.05
3,COc1cc(NC(C)=O)c2ncccc2c1Br,-1.05

# (listing goes on)

row,SMILES,T3 sensor activation Q score
1,CC(=O)Nc1nc(C)c(CCCOc2ccc([N+](=O)[O-])cc2)c(=O)[nH]1,1.75
2,CCCCc1c(C)[nH]c(=S)[nH]c1=O,-0.85
3,CN1CN(C)C(c2ccncc2)=C1c1ccncc1,0.75
4,CCOC(=O)C1CC(=O)c2cc(OC)c(OC)cc2C1 (centres undefined),0.9
5,COc1ccc(N=Nc2ccc(N)nc2N)cc1,0.75
6,COc1ccc(Cc2nnc(SC)n2-c2ccc(F)cc2)cc1OC,-0.25
7,Cc1nnc2nc(N)[nH]n2c1=O,-1.2
8,CCOC(=O)Nc1c2ccccc2nc2ccccc12,-1.8
9,CS(=O)(=O)Oc1ccc(Br)c2cccnc12,0.95
10,O=C(Nc1ccc2ccccc2c1)c1ccc(Cl)cc1Cl,1
11,COc1cc2c(=O)n3c4c(cccc4c2cc1OC)CC3,1.2
12,COc1ccc(C(C)=O)cc1CO/N=C1\CSCc2ccccc21,1.45
13,COc1cc(C(=O)C(=O)c2ccc(O)c(OC)c2)ccc1O,0.75
14,Oc1ccc(Nc2ccc3ccccc3c2)cc1,0.1
15,Nc1nc2c(ncn2C2CCCC2)c(=O)[nH]1,-0.9
16,CCCCC(=O)N1CCCC(C)C1 (centres undefined),-1.35
17,Nc1ncnc2c1cnn2C1CCCCC1,-0.5
18,CCN(CC)CCNc1c(C)cc(CO)c(Cl)c1C,0.85
19,CCOC(=O)C1C(=O)C(=O)N(C(C)C)C1C(=O)OCC (centres undefined),1.05
20,Nc1ncc2[nH]c(N)nc2n1,1.65
21,O=C(NC1(N2CCOCC2)CC1)c1ccc(Cl)cc1,-0.7
22,Nc1ncn([C@H]2C[C@H](O)[C@@H](CO)O2)c(=O)n1,1.05
23,Clc1nc(Cl)nc(-c2cn(-c3ccccc3)c3ccccc23)n1,-0.15

row,SMILES,T3 sensor activation Q score
1,Nc1ccc(Cn2ccc3c4c(N)nc(N)nc4ccc32)cc1,-0.95
2,c1ccc(-c2nc(-c3ccccn3)nc(-c3ccccn3)n2)nc1,-0.7
3,O=C(COc1cc(Cl)c(Cl)cc1Cl)Nc1ccc([N+](=O)[O-])cc1Cl,-0.3
4,Brc1ccc(N=Nc2ccc3ccccc3n2)cc1,0.5
5,O=C([O-])C(=O)[O-].[NH-][C@@H]1CCCC[C@H]1[NH-].[Pt+4],-0.4
6,Cc1cccc(NC2=C(C#N)C(=O)NC3(CCCC3)S2)c1,-1.15
7,O=C1c2cccc(Sc3ccccc3)c2C(=O)c2c(Sc3ccccc3)cccc21,0.1
8,CCOC(=O)Cc1c[nH]c(=S)[nH]c1=O,0.3
9,C/C=C1\NC(=O)[C@H]2CSSCC/C=C/[C@H](CC(=O)N[C@H](C(C)C)C(=O)N2)OC(=O)[C@H](C(C)C)NC1=O,-0.5
10,CCCNC(=O)c1ccc(S(N)(=O)=O)cc1,0.65
11,Cc1ccc(Cl)cc1NC(=O)N(C)CCO,1.55
12,Cn1ccc(=Nc2ccc(NC(=O)c3ccc(N=c4ccn(C)c5ccc([N+](=O)[O-])cc45)cc3)cc2)cc1,1.4
13,CCOC(=O)CC1(C)NC(C(=O)O)C(C)(C)S1 (centres undefined),0.05
14,CS(=O)(=O)Nc1nc2ccccc2[nH]1,0.6
15,CC1=CC2=C(C=O)C(=O)[C@](C)(O)[C@@H](O)C2=CO1,-0.85
16,Cc1cc(=O)[nH]c(N/N=C2/CCCCC2C)n1 (centres undefined),0.3
17,O=C(OCC1CCC=CO1)C1CCC=CO1 (centres undefined),-0.85
18,Cc1cc(=S)[nH]c(=S)[nH]1,1.1
19,S=C(Nc1ccccc1)Nc1nccs1,0.6
20,S=c1[nH]ccn1-c1ccccc1Cl,0.7
21,CN1CCc2ccccc2C1Cc1ccccc1NC(=O)c1sc2ccccc2c1Cl (centres undefined),0.3
22,Nc1[nH]nc2nc(-c3ccccc3)[nH]c(=O)c12,0.35
23,NS(=O)(=O)c1ccc(NC2(C(=O)O)CCCC2)cc1,1.3

# Reformatted as tab-separated lines: entries from further up
row	SMILES	T3 sensor activation Q score
3	O=C(COc1cc(Cl)c(Cl)cc1Cl)Nc1ccc([N+](=O)[O-])cc1Cl	-0.3
4	Brc1ccc(N=Nc2ccc3ccccc3n2)cc1	0.5
5	O=C([O-])C(=O)[O-].[NH-][C@@H]1CCCC[C@H]1[NH-].[Pt+4]	-0.4
6	Cc1cccc(NC2=C(C#N)C(=O)NC3(CCCC3)S2)c1	-1.15
7	O=C1c2cccc(Sc3ccccc3)c2C(=O)c2c(Sc3ccccc3)cccc21	0.1

# (more compounds)

row,SMILES,T3 sensor activation Q score
1,COCC(=O)OC1CCn2c1nc1c2C(=O)C(C)=C(NC(C)=O)C1=O (centres undefined),-0.35
2,CCCCSc1ncnc2[nH]ncc12,0.05
3,O=c1cc(-c2cccnc2)oc2c1ccc1ccccc12,1.25
4,Nc1ccc(Br)cc1Br,-0.55
5,Cc1c(N2CCCC2)cc2c(c1NC(=O)c1ccccc1Cl)C(C)(C)CC2(C)C,0.7
6,CCOC(=O)C(C#N)C(=N)C1C(=O)OC2CCCCC21 (centres undefined),-0.95
7,CCCCOc1ccc(Nc2cc(Cl)ccc2C(=O)O)cn1,1.4
8,O=C1C(Cl)=C(NCCc2ccccc2)C(=O)c2ccccc21,0.4
9,O=C(O)c1cc(Cl)n[nH]c1=O,-1.1
10,O=C(O)c1ccc(OCCOc2ccccc2)cc1,-1.15
11,CSc1cccc(NC(=O)OC2CCCCCCCCCCC2)c1,0.6
12,Cc1nc(-c2ccccc2)c(Cc2ccccc2O)c(=O)[nH]1,1.4
13,CN(NC(=O)C(=O)NCc1ccco1)C(=O)NC1CCCCC1,0.8
14,CO/N=C1/C=C(C)C(=O)C(C)=C1C,0.25
15,NC(=O)C1=C[C@H]2[C@H]3C=C[C@@]2(O)C(=O)O[C@@H]3O1,-0.05
16,Cc1nc(Br)c(Br)c(C)c1Br,0
17,COc1ccc(Br)c2c1C(=O)CC2,-1.4
18,CNc1nc(SC)n(C)c(=O)c1N=O,-1.05
19,CC(C)c1cc(C(C)C)n2nc(N)nc2n1,0.4
20,c1ccc(CSc2nnc3c4ccccc4c4ccccc4c3n2)cc1,0.4
21,OC1(Cc2ccccc2)CCNCC1,-1.25
22,CN1CCC=C(C(=O)N2c3ccccc3Sc3ccc(Cl)cc32)C1,1.45
23,Cc1cccnc1NC(=O)c1csnn1,0.65

row,SMILES,T3 sensor activation Q score
1,O=C(O)C(=O)Nc1ncn[nH]1,-1.75
2,O=c1[nH]cnc(CN2CCCCC2)c1O,-1.2
3,CS/C(N)=N\S(=O)(=O)c1ccc(NC(C)=O)cc1,0.1
4,N#C/C(=C\c1cc(O)c(O)c(O)c1)C(N)=O,-0.4
5,CC(C)(C)NC(=S)NC(C)(C)C,-0.2
6,NC(=O)Nc1n[nH]c(-c2ccccc2)n1,0.7
7,CC(=O)OCCn1c2nc(=O)[nH]c(=O)c-2nc2cc(C)c(C)cc21,0.6
8,COc1cc(NCc2ccccc2O)c2ncccc2c1,-1
9,Cn1cnc2ncnn2c1=S,-1.2
10,S=c1nc[nH]c2c1ncn2C1CCCO1 (centres undefined),-0.4
11,O=C(Nc1ccc(C(=O)O)c(O)c1)c1ccccc1,-1
12,Cc1nc2[nH]c(=O)n(O)c(=O)c2s1,-1.3
13,CN(C)/N=N/c1nc[nH]c1C(N)=O,0.35
14,Cc1ccccc1OCC(O)CN1CCN(c2ccc(Cl)cc2)CC1 (centres undefined),-0.4
15,N#Cc1cnn(-c2cccc(Cl)c2)c1-n1cccc1,0.75
16,COc1cc(CCC(=O)O)on1,-0.6
17,O=C(/C=C/c1cccnc1)/C=C/c1cccnc1,-0.9
18,Oc1c(N=Nc2nn[nH]n2)ccc2ccccc12,1.25
19,CCCC1OC(c2cc3c(cc2Cl)OCO3)OCC1CC (centres undefined),0.25
20,N#Cc1c(N)nc(N)nc1Nc1ccc(Br)cc1,1.55
21,COc1ccc2nc(-c3ccc(Cl)cc3)cc(C(=O)O)c2c1,-0.75
22,CC1=NN(c2ccccc2)C(=O)C1C(=S)SC1CC(=O)NC1=O (centres undefined),0.4
23,CCOP(=O)(OCC)/C(C#N)=C/c1c[nH]c2ccccc12,-0.85

row,SMILES,T3 sensor activation Q score
1,Nc1ccc(NC(=O)c2ccc(C(=O)Nc3ccc(N)cc3)cc2)cc1,1.05
2,S=C(Sc1ccc(Cl)cc1)Sc1ccc(Cl)cc1,-1.2
3,Cn1c(=O)c2[nH]c(CCCc3ccc([N+](=O)[O-])cc3)nc2n(C)c1=O,0.35
4,Cn1c2c(sc1=O)CCC2,1.55
5,O=c1[nH]c2ccccc2n1C1=CCNCC1,1.3
6,NC(=O)c1cc(Br)cc(C2CCCCC2)c1O,0.45
7,CCOC(=O)CCC1(C(=O)OC)C(=O)CCCCC/C=C/1C(=O)OC (centres undefined),1.3
8,Nc1ccc2c(c1)N=[N+]([O-])c1cc(N)ccc1C2,-0.35
9,O=C1c2ccccc2NC(c2cc(Cl)cc(Cl)c2O)N1CCc1ccccn1 (centres undefined),0.55
10,CCCCSc1cc(=O)[nH]c(N)n1,0.2
11,O=C1c2ccccc2C(O)(c2ccccc2)N1c1ccncc1 (centres undefined),0.25
12,CC(=O)Nc1cccc(NC(C)=O)n1,-0.9
13,Cn1cnc([N+](=O)[O-])c1Sc1ncn[nH]1,1.8
14,CCSc1nc(O)cc(=O)[nH]1,-1.2
15,CCCS(=O)(=O)Nc1ccc(F)c(C(=O)c2c[nH]c3ncc(-c4ccc(Cl)cc4)cc23)c1F,-1.75
16,Cc1ccc(NC(=O)N2CCCCC2)cc1NC(=O)N1CCCCC1,1.4
17,Oc1ccc(Nc2ccnc3cc(Cl)ccc23)cc1,1.1
18,O=C(Nc1ccc(Oc2ccc(NC(=O)Nc3ccc([N+](=O)[O-])cc3)cc2)cc1)Nc1ccc([N+](=O)[O-])cc1,-1.45
19,O=C(O)/C(=C/c1ccccc1)c1ccccc1,0.45
